The target in the data set is T1, CD14 (UniProt P08571).
T1 sequence (looked up, limits assumed): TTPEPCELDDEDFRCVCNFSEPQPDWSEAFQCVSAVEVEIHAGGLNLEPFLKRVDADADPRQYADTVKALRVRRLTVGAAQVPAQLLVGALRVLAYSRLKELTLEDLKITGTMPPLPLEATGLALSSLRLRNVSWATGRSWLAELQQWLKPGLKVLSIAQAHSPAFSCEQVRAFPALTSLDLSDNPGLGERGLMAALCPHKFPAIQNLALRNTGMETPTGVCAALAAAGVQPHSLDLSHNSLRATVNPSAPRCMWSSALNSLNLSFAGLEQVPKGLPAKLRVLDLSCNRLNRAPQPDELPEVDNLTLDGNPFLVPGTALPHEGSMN
The data set is described as follows: flow cytometry. Particulars: CD14-transfected Jurkat cells, protein on the cell surface, protein details: expressed on transfected Jurkat cells, label: Cy5 (flow cytometry), single-stranded DNA. On the technique in general: In flow cytometry, cells or beads pass a laser one at a time.

At least one result comes from cells or an extract, where the contact may be indirect. A negative result means that nothing was seen under these conditions. Tags and fusion partners may be left off the protein sequences shown.

The values below come from patent US20230017777, “MONOCYTE AND MACROPHAGE BINDING APTAMERS AND THEIR APPLICATION” (University of Washington, published 2023).

In the case of “ATCCAGAGTGACGCAGCAATGATAGTGACGTACGGACTAGGGATCACCCATATCATGTAGAGGAAGTACGTGGACACGGTGGCTTAGT [SCRM (scrambled / nonspecific control aptamer)]”, for the setting “scrambled control, variant of A2”, the binding result is “no binding”. With “ATCCAGAGTGACGCAGCAGAAGAGTAGATGAAACGTTTTTTCGCCCGATAAAAGGGACGTGCGTCAGACATGGACACGGTGGCTTAGT [A2]”, the binding result (no significant binding over SCRM) was “no binding”.
